First the molecules themselves.
B1: Foxp3 (protein, UniProt Q99JB6 1-417)
chain: MPNPRPAKPMAPSLALGPSPGVLPSWKTAPKGSELLGTRGSGGPFQGRDLRSGAHTSSSLNPLPPSQLQLPTVPLVMVAPSGARLGPSPHLQALLQDRPHFMHQLSTVDAHAQTPVLQVRPLDNPAMISLPPPSAATGVFSLKARPGLPPGINVASLEWVSREPALLCTFPRSGTPRKDSNLLAAPQGSYPLLANGVCKWPGCEKVFEEPEEFLKHCQADHLLDEKGKAQCLLQREVVQSLEQQLELEKEKLGAMQAHLAGKMALAKAPSVASMDKSSCCIVATSTQGSVLPAWSAPREAPDGGLFAVRRHLWGSHGNSSFPEFFHNMDYFKYHNMRPPFTYATLIRWAILEAPERQRTLNEIYHWFTRMFAYFRNHPATWKNAIRHNLSLHKCFVRVESEKGAVWTVDEFEFRKKR

By UniProt entry, the sequences of proteins in these tests, tags left out. Where a name states a change or a piece, a line headed by the entry shows the natural chain unless it says otherwise.
UniProt Q00899: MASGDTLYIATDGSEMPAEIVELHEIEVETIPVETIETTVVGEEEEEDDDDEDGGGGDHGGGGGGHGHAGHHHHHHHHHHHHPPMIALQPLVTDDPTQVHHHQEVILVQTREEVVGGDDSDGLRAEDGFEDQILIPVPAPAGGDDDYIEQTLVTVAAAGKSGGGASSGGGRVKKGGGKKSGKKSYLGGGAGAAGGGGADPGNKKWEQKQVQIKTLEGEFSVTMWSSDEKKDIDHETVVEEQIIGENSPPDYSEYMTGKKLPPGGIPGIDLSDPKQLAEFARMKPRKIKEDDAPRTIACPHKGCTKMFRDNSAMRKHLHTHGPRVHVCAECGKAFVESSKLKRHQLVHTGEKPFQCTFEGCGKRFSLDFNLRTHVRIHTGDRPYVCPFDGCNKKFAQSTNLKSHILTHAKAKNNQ
UniProt Q8BUN5: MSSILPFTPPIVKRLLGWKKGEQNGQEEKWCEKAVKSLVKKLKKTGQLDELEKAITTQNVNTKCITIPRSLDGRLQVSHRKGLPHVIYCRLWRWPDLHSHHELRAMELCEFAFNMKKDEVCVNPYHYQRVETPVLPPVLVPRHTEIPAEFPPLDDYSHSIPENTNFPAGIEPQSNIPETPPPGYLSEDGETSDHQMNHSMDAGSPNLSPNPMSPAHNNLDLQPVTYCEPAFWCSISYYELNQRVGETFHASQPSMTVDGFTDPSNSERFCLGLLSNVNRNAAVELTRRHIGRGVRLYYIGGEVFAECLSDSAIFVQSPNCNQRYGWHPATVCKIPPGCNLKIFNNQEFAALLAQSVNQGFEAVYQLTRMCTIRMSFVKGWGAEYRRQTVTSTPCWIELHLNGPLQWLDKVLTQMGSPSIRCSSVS
UniProt P97471: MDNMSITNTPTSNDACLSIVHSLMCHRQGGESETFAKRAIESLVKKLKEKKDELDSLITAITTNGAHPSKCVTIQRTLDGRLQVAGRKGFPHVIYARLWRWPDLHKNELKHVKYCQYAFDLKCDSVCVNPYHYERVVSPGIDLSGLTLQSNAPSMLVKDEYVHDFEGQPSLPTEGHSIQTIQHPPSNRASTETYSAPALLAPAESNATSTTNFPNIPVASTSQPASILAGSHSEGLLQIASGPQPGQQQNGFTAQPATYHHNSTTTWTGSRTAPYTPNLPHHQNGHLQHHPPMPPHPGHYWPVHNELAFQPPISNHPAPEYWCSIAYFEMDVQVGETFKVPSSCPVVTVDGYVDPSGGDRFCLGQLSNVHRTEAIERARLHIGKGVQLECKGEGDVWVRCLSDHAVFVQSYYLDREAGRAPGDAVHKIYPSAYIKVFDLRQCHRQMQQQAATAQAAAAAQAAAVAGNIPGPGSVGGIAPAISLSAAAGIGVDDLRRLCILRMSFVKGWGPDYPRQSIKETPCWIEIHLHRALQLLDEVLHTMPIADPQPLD

No constants are given. Whether binding was seen depends on the method and setting. Binding seen in cells or lysates may run through a third protein.

The experiment concerns the target YY1 deletion mutant lacking the spacer domain (mouse) (UniProt Q00899). The experiment is described as follows: co-IP; HEK293T transfected with Smad3-, Smad4- or Foxp3-expression vector together with FLAG-tagged YY1 or YY1 domain mutants; lysates immunoprecipitated with anti-FLAG; immunoblot with anti-Smad3, anti-Smad4, anti-Foxp3 or anti-FLAG. In general terms: In western blotting, separated proteins are transferred to a membrane and probed.
On to Smad3 (from UniProt Q8BUN5 1-425), for which the binding entry is given as “no binding”.
As to Smad4 (from UniProt P97471 1-551), the binding result was “no binding”.
In the case of B1 it was “no binding”.

(Values after article PMC4762897.)
